The values below come from publication PMC7788135.

This experiment concerns the target BK–OsMS188∆C (rice (Oryza sativa L.)). In words: two-hybrid; Clontech two-hybrid system, yeast AH109; OsMS188 in pGBKT7 (BD), partners in pGADT7 (AD); growth on SD/-Ade/-His/-Trp/-Leu/X-a-Gal media.

Results are given in words; binding and its absence hold for the method and conditions named.

B1: GAMYB (protein, UniProt Q0JIC2 1-553)
chain: MYRVKSESDCDMIHQEQMDSPVADDGSSGGSPHRGGGPPLKKGPWTSAEDAILVDYVKKHGEGNWNAVQKNTGLFRCGKSCRLRWANHLRPNLKKGAFTAEEERLIIQLHSKMGNKWARMAAHLPGRTDNEIKNYWNTRIKRCQRAGLPIYPTSVCNQSSNEDQQCSSDFDCGENLSNDLLNANGLYLPDFTCDNFIANSEALPYAPHLSAVSISNLLGQSFASKSCSFMDQVNQTGMLKQSDGVLPGLSDTINGVISSVDQFSNDSEKLKQAVGFDYLHEANSTSKIIAPFGGALNGSHAFLNGNFSASRPTSGPLKMELPSLQDTESDPNSWLKYTVAPALQPTELVDPYLQSPAATPSVKSECASPRNSGLLEELIHEAQTLRSGKNQQTSVISSSSSVGTPCNTTVLSPEFDMCQEYWEEQHPGPFLNDCAPFSGNSFTESTPPVSAASPDIFQLSKVSPAQSTSMGSGEQVMGPKYEPGDTSPHPENFRPDALFSGNTADPSVFNNAIAMLLGNDLSIDCRPVLGDGIMFNSSSWSNMPHACEMSEFK
Regarding B1, the binding entry is given as “no binding”.
